# Primary screen of a compound library

Protein sequences, listed by entry. Tags and fused reporters are not part of them. Residues count along the entry.
UniProt Q8IDJ8, 1-583: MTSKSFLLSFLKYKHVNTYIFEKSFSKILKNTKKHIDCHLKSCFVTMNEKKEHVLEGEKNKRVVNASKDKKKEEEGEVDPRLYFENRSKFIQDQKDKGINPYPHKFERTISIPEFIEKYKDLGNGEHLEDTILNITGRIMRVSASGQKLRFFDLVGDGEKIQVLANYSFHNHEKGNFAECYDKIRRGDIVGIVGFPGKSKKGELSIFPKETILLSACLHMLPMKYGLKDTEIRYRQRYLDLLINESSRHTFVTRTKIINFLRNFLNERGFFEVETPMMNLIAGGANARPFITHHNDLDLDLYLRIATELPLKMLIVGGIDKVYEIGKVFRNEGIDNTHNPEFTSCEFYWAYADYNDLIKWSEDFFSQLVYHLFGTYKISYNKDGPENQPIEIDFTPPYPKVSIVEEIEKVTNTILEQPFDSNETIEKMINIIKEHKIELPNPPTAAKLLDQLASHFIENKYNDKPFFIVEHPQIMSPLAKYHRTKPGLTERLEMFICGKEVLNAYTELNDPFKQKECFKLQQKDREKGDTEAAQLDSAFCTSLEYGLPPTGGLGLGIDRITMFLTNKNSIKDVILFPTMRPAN
UniProt A4I591, 1-473: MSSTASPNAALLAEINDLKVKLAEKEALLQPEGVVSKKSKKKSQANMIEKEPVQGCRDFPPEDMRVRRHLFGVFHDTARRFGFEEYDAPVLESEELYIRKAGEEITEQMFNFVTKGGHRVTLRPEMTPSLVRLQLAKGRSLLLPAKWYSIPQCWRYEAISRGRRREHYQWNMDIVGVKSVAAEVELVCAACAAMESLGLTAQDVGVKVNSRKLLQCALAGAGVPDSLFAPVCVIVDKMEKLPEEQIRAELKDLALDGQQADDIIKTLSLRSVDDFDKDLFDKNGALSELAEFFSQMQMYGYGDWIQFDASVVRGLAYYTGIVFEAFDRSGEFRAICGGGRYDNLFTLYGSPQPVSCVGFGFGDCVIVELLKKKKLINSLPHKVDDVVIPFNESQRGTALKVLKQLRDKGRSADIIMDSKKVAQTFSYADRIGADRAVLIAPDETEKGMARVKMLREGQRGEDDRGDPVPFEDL

The filed quantity is “Percent Effect” (%).
The record does not define 0% and 100%; most values in the screen are far below 50% and negative numbers occur (in some assays of this library far below -100).
This is an unselected part of the compounds tested.
Two or more numbers in one place are separate tests of the same structure; such repeats can differ widely.
A dash means the value is not listed here; it may have been measured.

Leishmania in macrophages: 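Cell assay of Leishmania donovani living inside macrophages; the read-out is not stated. Tested at 30 µM. Direction is inferred from retests: higher values go with stronger inhibition. About 69,000 compounds were tested under these conditions; 1.5% (about 1,000) showed 50% or more at least once.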
PfKRS1: 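Lysine-tRNA ligase, Plasmodium falciparum 3D7 (UniProt Q8IDJ8). Enzyme assay of the cytosolic lysyl-tRNA synthetase in 384-well plates, read by luminescence. Tested at 30 µM. Direction is inferred from only a few compounds that gave an IC50; most scored high, so higher reads as stronger inhibition. Size under these conditions: about 69,000 compounds, about 49 of them at 50% or above in at least one test.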
LiHisRS: 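Enzyme assay of histidyl-tRNA synthetase; the read-out is not stated. Target: Histidine-tRNA ligase, Leishmania infantum (UniProt A4I591). Tested at 30 µM. Higher reads as stronger inhibition (inferred: compounds with an IC50 in retests scored well above the rest). The assay is labelled LdHisRS but filed under L. infantum. Of about 69,000 compounds tested this way, about 410 (0.6%) reached 50% or more in at least one test.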

| # | Compound | Leishmania in macrophages | PfKRS1 | LiHisRS |
|---|---|---|---|---|
| 1 | `Cc1csc(CNc2cnn(C(C)C)c2)n1` | 9.436% | 6.452% | 16.95% |
| 2 | `CCc1nc(CN(C(C)=O)C2CCN(Cc3ccccc3F)C2)no1` (configuration not stated) | 11.02% | -0.1447% | 16.95% |
| 3 | `CN1CCCC(CCC(=O)NCCc2nnc(N)s2)C1` (configuration not stated) | 5.808% | 7.276% | 9.333% |
| 4 | `O=C(NC1CCN(c2ccc(-c3ccccc3F)nn2)C1)C1CCC1` (configuration not stated) | 19.24% & 29.55% | 0.9846% | 5.217% |
| 5 | `CCn1nc2c(cc1=O)CN(Cc1nc(C)c(C)o1)CC2` | 22.1% | 2.805% | 27.19% |
| 6 | `O=C(Cc1ccccn1)N1CCCC(c2nccn2CC2CCC2)C1` (configuration not stated) | -1.281% | 6.649% | 10.84% |
| 7 | `Cc1nccn1-c1ccc(CNC(=O)c2ccc[nH]2)cn1` | 11.52% | 8.411% | 1.333% |
| 8 | `Cc1nnc(CN(Cc2ccc(Cl)c(Cl)c2)C2CC2)o1` | 22.23% | 1.352% | -4% |
| 9 | `CC(=O)N1CCCC(Cc2cnc(-n3ccnc3)cn2)C1` (configuration not stated) | -2.765% & -2.285% | 1.621% | -5.263% |
| 10 | `O=C(c1ccc(NCc2cccc(F)c2)cc1)N1CCC(CO)CC1` | -21.07% | 1.029% | 1.042% |
| 11 | `CCOC(=O)[C@]12CCCN(Cc3ccco3)C[C@H]1CN(CCN(C)C)C2` | - | 5.777% | 10.68% |
| 12 | `CCOCC1CC2(CCN(C(=O)c3ccccn3)CC2)CO1` (configuration not stated) | - | -5.272% | 27.45% |
| 13 | `CCN(C)S(=O)(=O)N1CCCC(c2cccc(C(=O)O)c2)C1` (configuration not stated) | 1.333% | 1.123% | 8.197% |
| 14 | `CC(C)Oc1ccc(CNC(=O)NCC(C)(C)C(N)=O)cc1F` | 31.79% | -0.3335% | 16.51% |
| 15 | `Cn1ccnc1CN1CCN(Cc2noc(-c3ccccc3)n2)CC1` | -7.412% | 8.003% | 12.16% |
| 16 | `CS(=O)(=O)N1C[C@H]2C[C@H](C(=O)N3CCOCC3)[C@@H](C1)O2` | - | 3.932% | 9.615% |
| 17 | `CCOCCCOC(=O)c1ccc2c(c1)[nH]c(=O)n2C` | 7.867% | 6.96% | 10.42% |
| 18 | `CCN1C[C@@H]2[C@@H](OC)CCN(S(=O)(=O)c3ccccc3F)[C@@H]2C1` | - | -1.204% | 10.95% |
| 19 | `O=C(Cc1ccc(S(=O)(=O)C(F)F)cc1)N1CCCC1` | 13.45% | 0.09162% | 9.402% |
| 20 | `Cc1cnc(N2C[C@H]3C[C@H](C(=O)N4CCN(C)CC4)N(C)[C@H]3C2)nc1` | - | 1.889% | 5.051% |
| 21 | `O=C(O)C(F)(F)F.[H][C@@]12CCC(=O)N(c3ccccc3)[C@]1([H])CCN2Cc1cnn(C)c1` | 0.3195% | - | - |
| 22 | `CN(c1ncccc1CNS(=O)(=O)N1CCOCC1)C1CCCCC1` | -34.28% | -0.3309% | -11.11% |
| 23 | `CCOc1ccc(CNC(=O)N(C)CC(C)(C)O)cc1C` | -3.1% | 2.542% | 9.877% |
| 24 | `c1cnc(NCc2noc3c2CN(C2CCOC2)CC3)nc1` (configuration not stated) | -15.06% | 6.815% | 23.29% |
| 25 | `CCCc1nc(C)c(C(=O)NCC2CCN(C3CC3)C2)s1` (configuration not stated) | -4.466% | 1.255% | 7.071% |
| 26 | `CC(C)c1nc2c(n1C)CCN(CCCOc1ccc(C#N)cc1)C2` | -23.01% | 1.631% | 12.5% |
| 27 | `[H][C@]12CC[C@]([H])(CN(C(=O)COCC)C1)N(Cc1ccccn1)C2=O` | 4.485% | - | - |
| 28 | `COCCn1cnnc1Cn1ccnc1-c1ccccc1C` | -3.822% | 3.151% | 16.95% |
| 29 | `Clc1ccccc1-c1cc(CNc2ncnc3c2CCNCC3)no1` | 94.85% | -0.5603% | 16.67% |
| 30 | `Cc1csc(C2CCCCN2C(=O)COCc2nc(C)no2)n1` (configuration not stated) | 28.92% | 2.687% | 20% |
| 31 | `O[C@@H]1C[C@@H](c2nc(-c3ccccc3)no2)N(C2CCOCC2)C1` | 19.22% | 4.515% | 20.27% |
| 32 | `COCC(NC(=O)c1cc(NC(C)=O)ccc1Cl)c1ccccn1` (configuration not stated) | 9.463% | 4.109% | 15.5% |
| 33 | `Cc1ccc(CN2Cc3ccccc3O[C@]3(CC[C@H](CO)CC3)C2)s1` | - | 3.373% | 16.49% |
| 34 | `COCCC(=O)Nc1cnn(COc2ccc(F)cc2Cl)c1` | -43% | -2.336% | 10.62% |
| 35 | `COCCn1cc(CC(=O)Nc2cc(C)n(C)n2)c2ccccc21` | 7.558% | 2.96% | 12.5% |
| 36 | `CC(=O)NCCC(=O)NC(C)c1sc(-c2ccccc2F)nc1C` (configuration not stated) | -1.241% | 3.066% | 6.25% |
| 37 | `NC(=O)c1csc(N2CCN(C3CCc4ccccc4C3)CC2)n1` (configuration not stated) | -10.15% | -0.9596% | 22.45% |
| 38 | `CC1CCN(c2ccc(=O)n(CC(=O)N(C)Cc3ccccc3)n2)CC1` | 24.38% | 4.757% | 1.124% |
| 39 | `c1ccc(CCNc2ncnc3c2CCN(Cc2c[nH]cn2)CC3)cc1` | 27.87% | 4.533% | 15.04% |
| 40 | `Cc1oncc1C(=O)N1CCC2(CCN(Cc3cccnc3)C2=O)C1.O=C(O)C(F)(F)F` (configuration not stated) | 38.5% | - | - |

For reference, 3 entries once more:

* CC1CCN(c2ccc(=O)n(CC(=O)N(C)Cc3ccccc3)n2)CC1 : Leishmania in macrophages: 24.38%; PfKRS1: 4.757%; LiHisRS: 1.124%
* CC(=O)NCCC(=O)NC(C)c1sc(-c2ccccc2F)nc1C (configuration not stated) : Leishmania in macrophages: -1.241%; PfKRS1: 3.066%; LiHisRS: 6.25%
* O=C(Cc1ccc(S(=O)(=O)C(F)F)cc1)N1CCCC1 : Leishmania in macrophages: 13.45%; PfKRS1: 0.09162%; LiHisRS: 9.402%

From ChEMBL document CHEMBL3988442, “University of Dundee, Small-Polar-MMV Screening Library” (2021).